Measurements from the supplement of paper PMC10849652.
This is one part of the list.

Sequences of proteins named here, by UniProt entry; tags and fusion partners are left off. A change or cut given only in a name is not applied to a line headed by its entry.
UniProt P18669: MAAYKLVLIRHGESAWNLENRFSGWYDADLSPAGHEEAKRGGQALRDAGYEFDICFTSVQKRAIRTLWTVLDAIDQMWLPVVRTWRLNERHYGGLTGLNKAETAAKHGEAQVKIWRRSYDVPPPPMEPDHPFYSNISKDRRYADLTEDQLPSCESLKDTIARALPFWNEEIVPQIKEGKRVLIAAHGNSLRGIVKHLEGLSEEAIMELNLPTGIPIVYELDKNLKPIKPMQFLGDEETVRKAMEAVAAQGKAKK
UniProt O75381, whole entry, looked up: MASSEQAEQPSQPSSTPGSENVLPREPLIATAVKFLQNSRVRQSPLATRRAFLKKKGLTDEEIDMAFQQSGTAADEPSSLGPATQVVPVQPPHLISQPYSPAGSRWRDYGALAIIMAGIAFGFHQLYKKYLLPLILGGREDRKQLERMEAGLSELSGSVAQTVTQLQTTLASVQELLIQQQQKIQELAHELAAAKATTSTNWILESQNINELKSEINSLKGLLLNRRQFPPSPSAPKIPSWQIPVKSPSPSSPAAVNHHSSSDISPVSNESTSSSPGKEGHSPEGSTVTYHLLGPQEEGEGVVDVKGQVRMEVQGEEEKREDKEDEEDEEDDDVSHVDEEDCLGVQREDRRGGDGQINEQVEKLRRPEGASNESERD
UniProt Q13442: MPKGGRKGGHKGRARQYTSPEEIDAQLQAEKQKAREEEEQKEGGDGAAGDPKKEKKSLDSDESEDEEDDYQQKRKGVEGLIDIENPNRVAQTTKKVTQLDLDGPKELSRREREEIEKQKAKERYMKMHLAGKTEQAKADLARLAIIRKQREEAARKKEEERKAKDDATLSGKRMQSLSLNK
UniProt Q99471, whole entry, looked up: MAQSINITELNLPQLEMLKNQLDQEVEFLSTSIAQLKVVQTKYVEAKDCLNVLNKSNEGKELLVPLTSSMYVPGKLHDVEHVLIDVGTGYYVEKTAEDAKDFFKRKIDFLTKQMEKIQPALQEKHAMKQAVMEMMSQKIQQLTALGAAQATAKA
UniProt P50479: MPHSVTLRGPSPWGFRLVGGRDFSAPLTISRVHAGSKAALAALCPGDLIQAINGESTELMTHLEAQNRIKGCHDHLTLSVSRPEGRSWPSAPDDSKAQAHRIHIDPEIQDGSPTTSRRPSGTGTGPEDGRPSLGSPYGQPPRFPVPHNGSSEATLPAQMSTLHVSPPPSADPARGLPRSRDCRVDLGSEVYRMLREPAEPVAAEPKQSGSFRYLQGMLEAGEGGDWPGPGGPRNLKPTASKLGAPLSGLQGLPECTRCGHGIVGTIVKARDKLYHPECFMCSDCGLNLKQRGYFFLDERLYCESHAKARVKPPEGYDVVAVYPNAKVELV
UniProt Q9H0N5: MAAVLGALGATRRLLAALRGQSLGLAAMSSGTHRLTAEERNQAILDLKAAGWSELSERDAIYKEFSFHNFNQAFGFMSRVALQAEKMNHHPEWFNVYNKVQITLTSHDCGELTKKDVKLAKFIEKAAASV
UniProt Q5EBL8: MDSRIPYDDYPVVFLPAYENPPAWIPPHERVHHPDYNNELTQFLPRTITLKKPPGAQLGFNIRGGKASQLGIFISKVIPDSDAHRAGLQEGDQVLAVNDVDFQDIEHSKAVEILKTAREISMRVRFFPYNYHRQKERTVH
UniProt Q32M88: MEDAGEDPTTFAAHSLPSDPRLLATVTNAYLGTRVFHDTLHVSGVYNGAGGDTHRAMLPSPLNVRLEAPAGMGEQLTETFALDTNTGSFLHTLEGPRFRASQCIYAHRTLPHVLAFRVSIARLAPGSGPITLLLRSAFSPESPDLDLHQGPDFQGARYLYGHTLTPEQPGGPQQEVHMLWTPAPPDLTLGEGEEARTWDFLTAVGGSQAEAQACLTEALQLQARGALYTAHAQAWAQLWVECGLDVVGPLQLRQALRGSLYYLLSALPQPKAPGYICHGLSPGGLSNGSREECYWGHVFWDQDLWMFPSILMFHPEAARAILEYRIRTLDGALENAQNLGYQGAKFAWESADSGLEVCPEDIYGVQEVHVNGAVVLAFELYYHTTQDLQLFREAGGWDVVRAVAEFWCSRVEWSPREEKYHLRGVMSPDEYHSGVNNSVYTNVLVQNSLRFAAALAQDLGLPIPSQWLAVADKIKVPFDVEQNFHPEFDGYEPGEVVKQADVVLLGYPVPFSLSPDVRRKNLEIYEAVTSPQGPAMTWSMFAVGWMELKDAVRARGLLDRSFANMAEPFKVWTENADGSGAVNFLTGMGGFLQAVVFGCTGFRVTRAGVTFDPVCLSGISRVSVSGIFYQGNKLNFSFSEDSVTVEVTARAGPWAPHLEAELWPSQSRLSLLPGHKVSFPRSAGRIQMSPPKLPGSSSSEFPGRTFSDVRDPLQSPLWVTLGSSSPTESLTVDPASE
UniProt P49585: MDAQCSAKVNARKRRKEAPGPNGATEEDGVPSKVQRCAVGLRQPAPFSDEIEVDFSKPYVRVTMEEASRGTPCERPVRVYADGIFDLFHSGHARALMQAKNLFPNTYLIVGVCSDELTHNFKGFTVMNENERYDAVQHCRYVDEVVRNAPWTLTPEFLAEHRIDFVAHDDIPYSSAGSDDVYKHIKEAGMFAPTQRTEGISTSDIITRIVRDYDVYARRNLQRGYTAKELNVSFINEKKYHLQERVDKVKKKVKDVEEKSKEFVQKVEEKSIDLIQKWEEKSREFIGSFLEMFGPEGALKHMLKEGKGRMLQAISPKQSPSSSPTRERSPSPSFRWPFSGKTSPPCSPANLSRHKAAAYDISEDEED
UniProt Q9BYE7: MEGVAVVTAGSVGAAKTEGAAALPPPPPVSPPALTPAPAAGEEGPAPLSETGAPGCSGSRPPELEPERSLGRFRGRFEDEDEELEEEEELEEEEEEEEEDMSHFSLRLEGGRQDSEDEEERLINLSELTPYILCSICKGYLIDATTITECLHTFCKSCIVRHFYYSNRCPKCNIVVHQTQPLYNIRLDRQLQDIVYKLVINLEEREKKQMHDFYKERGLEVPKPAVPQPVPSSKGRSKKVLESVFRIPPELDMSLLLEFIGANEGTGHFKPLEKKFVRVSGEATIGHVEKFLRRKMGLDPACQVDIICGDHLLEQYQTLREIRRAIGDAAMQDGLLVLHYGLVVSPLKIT
UniProt O00628: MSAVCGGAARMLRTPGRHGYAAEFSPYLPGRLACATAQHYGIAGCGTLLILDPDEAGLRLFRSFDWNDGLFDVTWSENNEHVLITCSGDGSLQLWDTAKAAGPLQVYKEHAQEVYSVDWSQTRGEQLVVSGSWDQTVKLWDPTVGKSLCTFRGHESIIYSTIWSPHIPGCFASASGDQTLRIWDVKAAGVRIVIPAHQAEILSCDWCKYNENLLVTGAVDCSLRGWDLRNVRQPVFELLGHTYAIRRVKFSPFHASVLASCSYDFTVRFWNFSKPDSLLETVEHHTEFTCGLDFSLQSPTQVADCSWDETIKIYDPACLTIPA
UniProt Q14554: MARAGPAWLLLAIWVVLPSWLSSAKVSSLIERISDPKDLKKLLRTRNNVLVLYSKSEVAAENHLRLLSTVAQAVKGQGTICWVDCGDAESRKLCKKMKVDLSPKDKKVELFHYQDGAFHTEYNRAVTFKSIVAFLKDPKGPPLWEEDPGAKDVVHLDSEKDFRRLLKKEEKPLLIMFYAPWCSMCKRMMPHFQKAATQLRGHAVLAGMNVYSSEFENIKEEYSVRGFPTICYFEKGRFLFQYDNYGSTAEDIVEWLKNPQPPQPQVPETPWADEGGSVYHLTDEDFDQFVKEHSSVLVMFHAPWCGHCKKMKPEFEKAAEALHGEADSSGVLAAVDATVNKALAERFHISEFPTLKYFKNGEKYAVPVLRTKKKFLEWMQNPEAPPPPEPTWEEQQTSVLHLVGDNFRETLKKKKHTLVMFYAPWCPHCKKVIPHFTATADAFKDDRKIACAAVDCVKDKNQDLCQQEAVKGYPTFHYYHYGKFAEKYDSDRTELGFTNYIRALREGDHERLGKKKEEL
UniProt Q86U86, whole entry, looked up: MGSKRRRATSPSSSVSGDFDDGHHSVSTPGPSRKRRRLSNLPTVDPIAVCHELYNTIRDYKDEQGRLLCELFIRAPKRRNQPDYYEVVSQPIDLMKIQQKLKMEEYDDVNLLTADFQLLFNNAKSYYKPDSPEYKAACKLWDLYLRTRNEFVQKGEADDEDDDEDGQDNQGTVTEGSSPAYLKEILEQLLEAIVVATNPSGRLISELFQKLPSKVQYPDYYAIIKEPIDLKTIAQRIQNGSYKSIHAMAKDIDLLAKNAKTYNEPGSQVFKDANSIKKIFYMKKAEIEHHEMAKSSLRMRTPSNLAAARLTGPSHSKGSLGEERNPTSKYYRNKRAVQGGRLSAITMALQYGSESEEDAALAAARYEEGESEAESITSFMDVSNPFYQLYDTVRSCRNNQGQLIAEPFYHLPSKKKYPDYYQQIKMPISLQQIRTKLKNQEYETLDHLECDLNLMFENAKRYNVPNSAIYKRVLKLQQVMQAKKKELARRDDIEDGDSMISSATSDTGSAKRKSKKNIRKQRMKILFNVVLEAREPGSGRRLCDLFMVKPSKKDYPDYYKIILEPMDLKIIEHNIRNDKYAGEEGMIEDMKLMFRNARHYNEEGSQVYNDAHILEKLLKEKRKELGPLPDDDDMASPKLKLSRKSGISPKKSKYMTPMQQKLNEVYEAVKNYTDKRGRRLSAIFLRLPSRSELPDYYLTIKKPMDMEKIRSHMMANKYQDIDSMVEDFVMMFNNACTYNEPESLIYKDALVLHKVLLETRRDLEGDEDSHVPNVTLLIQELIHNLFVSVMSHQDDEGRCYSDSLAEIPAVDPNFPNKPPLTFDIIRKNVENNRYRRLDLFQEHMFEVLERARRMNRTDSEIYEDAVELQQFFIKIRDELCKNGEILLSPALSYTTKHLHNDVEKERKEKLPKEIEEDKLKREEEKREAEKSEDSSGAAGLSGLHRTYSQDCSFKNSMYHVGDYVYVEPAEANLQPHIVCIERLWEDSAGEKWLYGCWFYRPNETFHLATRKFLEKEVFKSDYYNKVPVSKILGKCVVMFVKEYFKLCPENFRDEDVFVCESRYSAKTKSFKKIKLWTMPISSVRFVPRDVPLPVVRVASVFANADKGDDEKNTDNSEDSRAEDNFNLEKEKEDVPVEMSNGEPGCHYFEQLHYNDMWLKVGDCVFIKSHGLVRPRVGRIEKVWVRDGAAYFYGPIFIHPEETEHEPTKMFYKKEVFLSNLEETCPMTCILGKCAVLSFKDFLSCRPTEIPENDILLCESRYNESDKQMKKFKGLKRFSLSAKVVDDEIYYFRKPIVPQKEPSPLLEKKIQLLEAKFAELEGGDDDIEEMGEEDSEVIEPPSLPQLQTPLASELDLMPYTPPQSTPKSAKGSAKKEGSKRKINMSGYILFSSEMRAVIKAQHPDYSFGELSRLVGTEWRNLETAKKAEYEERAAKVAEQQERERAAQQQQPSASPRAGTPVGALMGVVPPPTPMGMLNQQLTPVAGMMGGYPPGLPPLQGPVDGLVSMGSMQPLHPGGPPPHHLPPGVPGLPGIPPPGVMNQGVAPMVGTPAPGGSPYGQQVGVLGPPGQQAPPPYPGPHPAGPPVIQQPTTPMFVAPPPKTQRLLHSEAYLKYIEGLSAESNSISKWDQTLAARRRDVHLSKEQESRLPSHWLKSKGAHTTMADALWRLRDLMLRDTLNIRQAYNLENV
UniProt Q9UKL6: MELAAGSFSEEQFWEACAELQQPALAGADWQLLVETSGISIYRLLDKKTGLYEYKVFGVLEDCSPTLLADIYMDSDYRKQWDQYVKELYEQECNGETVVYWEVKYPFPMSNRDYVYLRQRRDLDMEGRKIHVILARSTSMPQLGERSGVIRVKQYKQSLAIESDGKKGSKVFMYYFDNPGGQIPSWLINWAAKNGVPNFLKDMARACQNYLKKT
UniProt P11177, whole entry, looked up: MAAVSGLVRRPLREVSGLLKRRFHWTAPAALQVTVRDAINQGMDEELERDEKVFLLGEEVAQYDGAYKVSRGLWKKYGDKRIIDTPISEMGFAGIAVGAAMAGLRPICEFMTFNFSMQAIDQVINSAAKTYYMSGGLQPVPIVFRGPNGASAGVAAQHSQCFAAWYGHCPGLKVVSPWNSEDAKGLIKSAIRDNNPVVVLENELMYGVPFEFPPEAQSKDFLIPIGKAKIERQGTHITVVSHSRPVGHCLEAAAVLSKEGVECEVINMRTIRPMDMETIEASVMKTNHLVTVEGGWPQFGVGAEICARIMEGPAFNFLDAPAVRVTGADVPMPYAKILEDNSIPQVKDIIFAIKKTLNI
UniProt Q86YH6: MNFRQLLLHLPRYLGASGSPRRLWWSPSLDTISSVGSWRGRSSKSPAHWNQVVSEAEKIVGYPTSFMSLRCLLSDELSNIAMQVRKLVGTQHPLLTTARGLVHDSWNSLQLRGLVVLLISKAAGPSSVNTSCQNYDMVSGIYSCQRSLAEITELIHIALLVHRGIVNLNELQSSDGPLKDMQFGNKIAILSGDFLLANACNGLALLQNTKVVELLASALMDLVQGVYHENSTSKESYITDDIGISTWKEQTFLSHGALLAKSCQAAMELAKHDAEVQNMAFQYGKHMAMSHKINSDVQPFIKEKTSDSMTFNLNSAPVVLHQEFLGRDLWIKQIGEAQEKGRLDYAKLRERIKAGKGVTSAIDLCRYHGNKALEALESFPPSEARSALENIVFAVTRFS

Experiments:
Experiment in all cases: log2 fold change, soluble protein after heating vs DMSO (PISA); higher = thermal stabilisation; K562 lysate, 10 uM; active = over 0.2 and 3.5 SD of the protein, either way, in both replicates (recomputed)
alvocidib = compound: CN1CC[C@H](c2c(O)cc(O)c3c(=O)cc(-c4ccccc4Cl)oc23)[C@H](O)C1 [alvocidib]
Outline: (§1)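 Dounce homogenisation of K562 pellets in PBS pH 7.4 with 1 mM MgCl2 produced a crude extract, used at 1 mg/mL protein. Exposure to 10 μM compound lasted 30 min, and aliquots were then heated for 3 min across 48°C-58°C, pooled and brought to 0.5% NP-40 at 4°C. The supernatant after 21,000xg for 90 min was quantified by TMTpro 16plex LC-MS/MS with channel sums equalised. Duplicate values are given as log-two fold change in thermal stability relative to solvent controls.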

Tubastatin A = compound: CN1CCc2c(c3ccccc3n2Cc2ccc(C(=O)NO)cc2)C1 [Tubastatin A]
Outline: as §1

[1] = compound: CNC(=O)C1=CC=CC=C1NC2=NC(=NC=C2Cl)NC3=C(C=C(C=C3)N4CCOCC4)OC
Outline: as §1

defactinib = compound: CNC(=O)c1ccc(Nc2ncc(C(F)(F)F)c(NCc3nccnc3N(C)S(C)(=O)=O)n2)cc1 [defactinib]
Outline: as §1

[2] = compound: CNc1nc(-c2ccc3c(N)n[nH]c3c2)cc(N2C[C@@H](C(=O)NC3CCCCC3)CC[C@H]2C)n1
Outline: as §1

encorafenib = compound: COC(=O)N[C@@H](C)CNc1nccc(-c2cn(C(C)C)nc2-c2cc(Cl)cc(NS(C)(=O)=O)c2F)n1 [encorafenib]
Outline: as §1

[3] = compound: COC(=O)[C@H](CCSC)NC(=O)C1=C(C=C(C=C1)NC[C@H](CS)N)C2=CC=CC=C2
Outline: as §1

alisertib = compound: COc1cc(Nc2ncc3c(n2)-c2ccc(Cl)cc2C(c2c(F)cccc2OC)=NC3)ccc1C(=O)O [alisertib]
Outline: as §1

[4] = compound: COc1cc2nc(-c3cc(F)ccc3O)nc(N[C@@H]3CNC[C@H]3C(C)(C)O)c2cc1OC
Outline: as §1

gefitinib = compound: COc1cc2ncnc(Nc3ccc(F)c(Cl)c3)c2cc1OCCCN1CCOCC1 [gefitinib]
Outline: as §1

Measured: log2 fold change

PEX19 (UniProt P40855)
inactive: alvocidib -0.028 | Tubastatin A 0.007 | [1] 0.021 | defactinib 0.016 | [2] 0.085 | encorafenib -0.02 | [3] -0.092 | alisertib 0.028 | [4] -0.004 | gefitinib -0.024

PGAM1 (UniProt P18669)
inactive: alvocidib 0.019 | Tubastatin A 0.029 | [1] 0.019 | defactinib 0.01 | [2] 0.015 | encorafenib -0.018 | [3] -0.036 | alisertib -0.028 | [4] -0.006 | gefitinib -0.016

PDCL (UniProt Q13371)
inactive: alvocidib -0.008 | Tubastatin A -0.017 | [1] 0.008 | defactinib -0.046 | [2] 0.033 | encorafenib 0.01 | [3] 0.011 | alisertib -0.042 | [4] -0.001 | gefitinib 0.027

PBXIP1 (UniProt Q96AQ6)
inactive: alvocidib -0.029 | Tubastatin A 0.012 | [1] -0.01 | defactinib 0.005 | [2] 0.062 | encorafenib 0.042 | [3] -0.09 | alisertib 0.013 | [4] 0.008 | gefitinib 0.008

PEX14 (UniProt O75381)
inactive: alvocidib -0.017 | Tubastatin A 0.008 | [1] -0.001 | defactinib 0.013 | [2] 0.06 | encorafenib -0.012 | [3] 0.134 | alisertib -0.021 | [4] 0.049 | gefitinib -0.023

PDAP1 (UniProt Q13442)
inactive: alvocidib -0.074 | Tubastatin A 0.063 | [1] 0.004 | defactinib -0.012 | [2] 0.109 | encorafenib -0.038 | [3] -0.017 | alisertib 0.006 | [4] 0.018 | gefitinib -0.029

PEPD (UniProt P12955)
inactive: alvocidib 0.015 | Tubastatin A 0.039 | [1] 0.053 | defactinib -0.015 | [2] 0.015 | encorafenib 0.009 | [3] -0.07 | alisertib 0.03 | [4] -0.017 | gefitinib -0.074

PFDN5 (UniProt Q99471)
inactive: alvocidib 0.03 | Tubastatin A 0.109 | [1] 0.03 | defactinib 0.09 | [2] 0.061 | encorafenib 0 | [3] -0.028 | alisertib 0.028 | [4] -0.004 | gefitinib -0.185

PDLIM4 (UniProt P50479)
inactive: alvocidib -0.045 | Tubastatin A 0.069 | [1] 0.035 | defactinib -0.028 | [2] 0.044 | encorafenib 0.033 | [3] -0.099 | alisertib -0.035 | [4] -0.026 | gefitinib -0.028

PCLO (UniProt Q9Y6V0)
inactive: alvocidib -0.252 | Tubastatin A 0.104 | [1] 0.01 | defactinib 0.061 | [2] 0.335 | encorafenib 0.041 | [3] -0.033 | alisertib -0.036 | [4] 0.057 | gefitinib -0.078

PCBD2 (UniProt Q9H0N5)
inactive: alvocidib -0.124 | Tubastatin A 0.012 | [1] 0.01 | defactinib -0.045 | [2] -0.059 | encorafenib -0.008 | [3] -0.039 | alisertib 0.058 | [4] 0.031 | gefitinib 0.071

PDZD11 isoform 2 (UniProt Q5EBL8)
inactive: alvocidib 0.005 | Tubastatin A 0.082 | [1] 0.02 | defactinib 0.128 | [2] 0.058 | encorafenib 0.043 | [3] 0.024 | alisertib -0.02 | [4] -0.004 | gefitinib -0.081

PGGHG (UniProt Q32M88)
inactive: alvocidib -0.011 | Tubastatin A 0.033 | [1] 0.038 | defactinib -0.017 | [2] 0.017 | encorafenib 0.017 | [3] -0.061 | alisertib -0.023 | [4] -0.051 | gefitinib -0.009

PCYT1A (UniProt P49585)
inactive: alvocidib 0.025 | Tubastatin A 0.02 | [1] 0.021 | defactinib -0.007 | [2] 0.044 | encorafenib 0.015 | [3] -0.058 | alisertib 0.02 | [4] 0.022 | gefitinib -0.01

PEX2 (UniProt P28328)
inactive: alvocidib -0.041 | Tubastatin A -0.104 | [1] 0.172 | defactinib 0.181 | [2] 0.118 | alisertib 0.115 | [4] 0.116 | gefitinib -0.372

PCGF6 (UniProt Q9BYE7)
inactive: alvocidib 0.022 | Tubastatin A -0.019 | [1] 0.045 | defactinib 0.085 | [2] 0.047 | alisertib -0.068 | [4] -0.036 | gefitinib 0.127

PDLIM5 (UniProt Q96HC4)
inactive: alvocidib -0.073 | Tubastatin A 0.033 | [1] -0.014 | defactinib -0.005 | [2] 0.013 | encorafenib 0.005 | [3] -0.118 | alisertib -0.006 | [4] -0.009 | gefitinib -0.037

PDCD2L (UniProt Q9BRP1)
inactive: alvocidib -0.034 | Tubastatin A -0.11 | [1] 0.053 | defactinib -0.062 | [2] -0.001 | encorafenib 0.025 | [3] 0.037 | alisertib -0.037 | [4] 0.007 | gefitinib -0.035

Six successive entries already listed, quoted:
PDZD11 isoform 2 (UniProt Q5EBL8)
inactive: alvocidib 0.005 | Tubastatin A 0.082 | [1] 0.02 | defactinib 0.128 | [2] 0.058 | encorafenib 0.043 | [3] 0.024 | alisertib -0.02 | [4] -0.004 | gefitinib -0.081

PGGHG (UniProt Q32M88)
inactive: alvocidib -0.011 | Tubastatin A 0.033 | [1] 0.038 | defactinib -0.017 | [2] 0.017 | encorafenib 0.017 | [3] -0.061 | alisertib -0.023 | [4] -0.051 | gefitinib -0.009

PCYT1A (UniProt P49585)
inactive: alvocidib 0.025 | Tubastatin A 0.02 | [1] 0.021 | defactinib -0.007 | [2] 0.044 | encorafenib 0.015 | [3] -0.058 | alisertib 0.02 | [4] 0.022 | gefitinib -0.01

PEX2 (UniProt P28328)
inactive: alvocidib -0.041 | Tubastatin A -0.104 | [1] 0.172 | defactinib 0.181 | [2] 0.118 | alisertib 0.115 | [4] 0.116 | gefitinib -0.372

PCGF6 (UniProt Q9BYE7)
inactive: alvocidib 0.022 | Tubastatin A -0.019 | [1] 0.045 | defactinib 0.085 | [2] 0.047 | alisertib -0.068 | [4] -0.036 | gefitinib 0.127

PDLIM5 (UniProt Q96HC4)
inactive: alvocidib -0.073 | Tubastatin A 0.033 | [1] -0.014 | defactinib -0.005 | [2] 0.013 | encorafenib 0.005 | [3] -0.118 | alisertib -0.006 | [4] -0.009 | gefitinib -0.037

Continuation:

PEX7 (UniProt O00628)
inactive: alvocidib -0.089 | Tubastatin A -0.077 | defactinib -0.061 | [2] -0.05 | encorafenib 0.056 | [3] -0.379 | [4] 0

PCBD1 (UniProt P61457)
inactive: alvocidib -0.029 | Tubastatin A 0.08 | [1] 0.011 | defactinib -0.019 | [2] 0.016 | encorafenib -0.021 | [3] 0 | alisertib 0.062 | [4] 0.024 | gefitinib 0.027

PCYT2 isoform 3 (UniProt Q99447)
inactive: alvocidib -0.046 | Tubastatin A -0.018 | [1] -0.004 | defactinib -0.017 | [2] -0.043 | encorafenib 0.007 | [3] -0.079 | alisertib -0.029 | [4] -0.002 | gefitinib 0.036

PDIA5 (UniProt Q14554)
inactive: alvocidib -0.02 | Tubastatin A 0.028 | [1] 0.013 | defactinib 0.004 | [2] -0.011 | encorafenib -0.009 | [3] -0.056 | alisertib 0.012 | [4] -0.01 | gefitinib -0.041

PDE6D (UniProt O43924)
inactive: alvocidib -0.027 | Tubastatin A -0.049 | [1] 0.048 | [2] 0.058 | encorafenib -0.101 | [3] -0.077 | alisertib -0.024 | [4] 0.031 | gefitinib 0.024

PBRM1 (UniProt Q86U86)
inactive: alvocidib -0.165 | Tubastatin A 0.007 | [1] -0.044 | [2] 0.03 | encorafenib 0.036 | [3] 0.09 | alisertib 0.051 | [4] -0.004 | gefitinib -0.085

PCTP (UniProt Q9UKL6)
inactive: alvocidib -0.009 | Tubastatin A 0.008 | [1] -0.021 | defactinib 0.027 | [2] -0.004 | encorafenib 0.008 | [3] -0.011 | alisertib -0.02 | [4] 0.002 | gefitinib -0.046

PDHB (UniProt P11177)
inactive: alvocidib -0.015 | Tubastatin A -0.038 | [1] -0.016 | defactinib 0.026 | [2] -0.008 | encorafenib -0.013 | [3] 0.054 | alisertib 0.014 | [4] -0.03 | gefitinib 0.019

PCNT (UniProt O95613)
inactive: alvocidib -0.093 | Tubastatin A -0.061 | [1] -0.017 | defactinib -0.009 | [2] 0.015 | encorafenib 0.015 | [3] -0.029 | alisertib 0.007 | [4] 0.008 | gefitinib 0.019

PFKM isoform 3 (UniProt P08237)
inactive: alvocidib -0.024 | Tubastatin A 0.007 | [1] 0.046 | defactinib -0.022 | [2] -0.026 | encorafenib -0.022 | [3] -0.017 | alisertib -0.036 | [4] 0.01 | gefitinib 0.005

PCLAF (UniProt Q15004)
inactive: alvocidib -0.005 | Tubastatin A 0.041 | [1] 0.017 | defactinib 0.014 | [2] 0.056 | encorafenib 0.005 | [3] -0.077 | alisertib -0.097 | gefitinib 0.001

PDSS2 (UniProt Q86YH6)
inactive: alvocidib 0.059 | Tubastatin A 0.098 | [1] 0.001 | defactinib 0.036 | [2] 0.032 | alisertib 0.037 | [4] 0.101 | gefitinib 0.002

PFKFB4 (UniProt Q16877)
inactive: alvocidib -0.03 | Tubastatin A -0.009 | [1] 0.029 | defactinib 0.011 | [2] -0.027 | encorafenib 0.02 | [3] -0.019 | [4] -0.016
